In patent US20250289905A1 (MIRIMGENE, published 2025):
Numbering of substitutions follows the chain as printed. These are yes or no findings as the source states them, for the method shown. Some binding calls cover weakened binding; strength is not graded here.

T1: mouse-derived WARS1 recombinant protein (mouse, UniProt P32921 1-481, limits assumed)
T1 construct: Recombinant, His-tagged (detected with anti-His tag antibody); construct not described; In the western blot also secreted WARS1 from J774A.1 supernatant and mouse serum; also called mouse WARS1
T1 sequence (looked up): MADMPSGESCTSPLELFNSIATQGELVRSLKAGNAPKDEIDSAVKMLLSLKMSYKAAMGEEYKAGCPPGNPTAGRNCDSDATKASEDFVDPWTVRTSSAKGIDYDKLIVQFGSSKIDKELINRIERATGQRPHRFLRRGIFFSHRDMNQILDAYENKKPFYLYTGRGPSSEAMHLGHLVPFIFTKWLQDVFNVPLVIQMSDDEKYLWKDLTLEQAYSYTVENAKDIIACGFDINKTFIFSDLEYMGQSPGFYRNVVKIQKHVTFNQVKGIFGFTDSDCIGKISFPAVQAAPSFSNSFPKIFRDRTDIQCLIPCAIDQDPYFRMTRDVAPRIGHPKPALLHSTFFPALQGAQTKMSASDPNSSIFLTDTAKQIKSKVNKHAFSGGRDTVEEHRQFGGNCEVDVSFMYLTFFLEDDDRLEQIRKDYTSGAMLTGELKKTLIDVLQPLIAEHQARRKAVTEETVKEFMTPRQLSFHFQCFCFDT

T2: human WARS1 recombinant protein (human, UniProt P23381 2-471, limits assumed)
T2 sequence: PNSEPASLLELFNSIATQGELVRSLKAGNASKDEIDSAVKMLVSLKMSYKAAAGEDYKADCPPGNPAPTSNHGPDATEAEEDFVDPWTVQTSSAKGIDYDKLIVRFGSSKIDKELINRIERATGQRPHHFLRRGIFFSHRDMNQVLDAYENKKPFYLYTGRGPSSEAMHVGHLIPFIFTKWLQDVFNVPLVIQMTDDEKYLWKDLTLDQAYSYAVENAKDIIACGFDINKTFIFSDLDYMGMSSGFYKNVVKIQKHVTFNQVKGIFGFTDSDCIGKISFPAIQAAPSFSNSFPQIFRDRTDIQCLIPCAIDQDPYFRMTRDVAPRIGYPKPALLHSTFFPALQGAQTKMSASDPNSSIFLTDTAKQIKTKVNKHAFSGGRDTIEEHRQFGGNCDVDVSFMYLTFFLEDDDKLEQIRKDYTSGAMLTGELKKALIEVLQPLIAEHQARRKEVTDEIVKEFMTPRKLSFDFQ

T3: rat-derived WARS1 recombinant protein (rat, UniProt Q6P7B0 1-481, limits assumed)
T3 construct: Recombinant, His-tagged (detected with anti-His tag antibody); construct not described; also called rat WARS1
T3 sequence (looked up): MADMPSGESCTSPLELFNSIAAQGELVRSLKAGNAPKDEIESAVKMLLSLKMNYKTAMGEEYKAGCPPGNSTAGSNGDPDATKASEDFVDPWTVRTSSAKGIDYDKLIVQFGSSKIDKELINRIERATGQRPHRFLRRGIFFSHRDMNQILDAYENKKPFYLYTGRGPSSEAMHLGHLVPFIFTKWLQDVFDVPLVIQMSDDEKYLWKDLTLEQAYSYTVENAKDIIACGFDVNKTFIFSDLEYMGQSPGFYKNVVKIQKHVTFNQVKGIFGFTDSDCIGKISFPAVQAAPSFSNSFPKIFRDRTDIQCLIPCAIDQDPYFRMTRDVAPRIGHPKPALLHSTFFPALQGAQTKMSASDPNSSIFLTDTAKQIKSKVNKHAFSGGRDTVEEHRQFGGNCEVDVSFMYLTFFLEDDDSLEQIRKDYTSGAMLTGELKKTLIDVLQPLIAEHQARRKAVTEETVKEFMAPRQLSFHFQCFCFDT

B1: SHL/ILN (antibody, V domains shown)
VH: EVQLLESGGGLVQPGGSLRLSCAASGFTFSSYDMSWVRQAPGKGLEWVSAISSGGSSIYYADSVKGRFTISRDNSKNTLYLQMNSLRAEDTAVYYCARDVAWDMLGDFDYWGQGTLVTVSS
VL: QSVLTQPPSASGTPGQRVTISCTGSSSNIGSNYVYWYQQLPGTAPKLLIYANILRPSGVPDRFSGSKSGTSASLAISGLRSEDEADYYCGAWDDSNSAYVFGGGTKLTVLT
notes: L-CDR2 and L-CDR3 variant of GKB101; also called SHL/ILN antibody
B2: SHL/LLN (antibody, V domains shown)
VH: B1 VH
VL: B1 VL with I53L
notes: L-CDR2 and L-CDR3 variant of GKB101; also called SHL/LLN antibody
B3: SHL/QLN (antibody, V domains shown)
VH: B1 VH
VL: B1 VL with I53Q
notes: L-CDR2 and L-CDR3 variant of GKB101; also called SHL/QLN antibody

molecular target: T1, mouse-derived WARS1 recombinant protein; experiment: western blot; recombinant protein, J774A.1 culture supernatant, mouse serum
Procedure: (§1) At this time, a WARS1 recombinant protein (human, mouse, pig, marmoset (NHP), or rat-derived), cell culture medium, and human or mouse serum were used as WARS1 protein samples. In particular, the cell culture medium was used by treating the human monocyte cell line, THP-1, or the mouse macrophage cell line, J774.1A, with LPS (lipopolysaccharide, 100 ng/ml) for 24 hours to induce an inflammatory response, and then the cell culture supernatant was obtained for use.
(§2) 30 μg of each of the WARS1 recombinant protein (human, mouse, pig, marmoset (NHP), or rat-derived), the cell supernatant obtained using the method above, and mouse or human serum was loaded onto 8% SDS-PAGE, then transferred to a PVDF membrane (Millipore). Afterwards, the membrane was reacted with 1 μg/ml of GKB101 or a variant antibody thereof for 1 hour each, then washed with TBST (TBS+Tween20) three times. Afterwards, it was reacted with a secondary antibody (anti-human IgG HRP, Millipore) for 1 hour, then washed with TBST three times to be treated with ECL (West® bright ECL, Advanta) to identify its protein expression (LAS-4000, Fujifilm).

binding	Binder
binds	B1
binds	B2
binds	B3

molecular target: T2, human WARS1 recombinant protein; experiment: western blot; recombinant protein, THP-1 culture supernatant, human serum
Procedure: as §1, §2

binding	Binder
binds	B1
binds	B2
binds	B3

molecular target: T3, rat-derived WARS1 recombinant protein; experiment: western blot; recombinant protein
Procedure: as §1, §2

binding	Binder
binds	B1
binds	B2
binds	B3

molecular target: T1, mouse-derived WARS1 recombinant protein; experiment: direct ELISA and sandwich ELISA, recombinant WARS1

binding	Binder
binds	B1
binds	B2
binds	B3

molecular target: T3, rat-derived WARS1 recombinant protein; experiment: direct ELISA and sandwich ELISA, recombinant WARS1

binding	Binder
binds	B1
binds	B2
binds	B3

molecular target: T2, human WARS1 recombinant protein; experiment: direct ELISA and sandwich ELISA, recombinant WARS1

binding	Binder
binds	B1
binds	B2
binds	B3
